According to PMC3166307:
Results are given in words; binding and its absence hold for the method and conditions named. Binding seen in cells or lysates may run through a third protein. Some results given as binding are weak or reduced against the parent protein; the word gives no strength. Sequences can lack the tags named with a protein.

B1: Kebab (kinetochore and EB1 associated basic protein), wild type, in vitro translated (protein, UniProt F0JAI6 1-548)
chain: MSSMAKSPDMRTPGCCSPLRTKELLERQRSSRCTPAKGYLTPRNCQSPKHPEMRIPSIFVTDADYGLERPKQLLQRLERSLYRSSSASKVPPKHSLLASQNRQRTWEGPKTPEFRSRTNKTIPASEPRPRRAKELLEDLRSKHQGTPATKIPSQRNPKENQELSKSHTCIPSSEPQPIRPKLILERERQESITNRLASTSIDRLKTKPPRSSFTSSRLLVPQMGFSYPKDPKRLHESDKGIKLTTSKRKLDFKTELGTDWLRRELEKIGKEWRKKTDYQLRQLISGFVKQLVRLLPFNGITFSHLSRDCYVQQMVEALQQLQYTKKVNKSWLQTPNSTQAIAHVLELLNFLLDVLEHRKGEGMCALPVVSEKQRIEQLASASGTSYDVMSLQQKFENIKIEKERLNNYQESLMPESPVSKDMDKVTERDGNQDFVRLLDFQKETLHELQLQRLRLQEFSELVSLAKIKLKRCCKANKQCIEAFNDQIQDLADCVVLRNRNIGLLTQLHLNDNPKEEELHERMKQLQRLYEDNYSNLLQLNIKPPQGSP
modifications: 35S-methionine (radiolabelled)
B2: Kebab-GFP (protein, UniProt F0JAI6 1-548)
chain: B1 chain

Tests used:
[1] = molecular target: T1, MBP-EB1 (UniProt Q9XZ57); assay: pull-down; 35S-labelled in vitro translated protein incubated 60 minutes with amylose resin coupled with MBP or MBP-EB1 in DIVEC buffer (50 mM Hepes pH 7.6, 1 mM MgCl2, 1 mM EGTA, 200 mM NaCl, 0.5% TritonX100); autoradiograph; only the target purified
T1 sequence: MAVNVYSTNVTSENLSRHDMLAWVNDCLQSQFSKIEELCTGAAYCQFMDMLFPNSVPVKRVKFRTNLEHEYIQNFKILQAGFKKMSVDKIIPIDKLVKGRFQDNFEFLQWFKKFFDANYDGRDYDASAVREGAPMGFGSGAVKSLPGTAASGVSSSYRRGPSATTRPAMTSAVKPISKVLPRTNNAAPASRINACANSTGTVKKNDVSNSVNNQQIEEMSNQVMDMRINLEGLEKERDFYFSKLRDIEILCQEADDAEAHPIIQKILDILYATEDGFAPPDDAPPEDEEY

[2] = molecular target: T1, MBP-EB1; assay: pull-down; extract of S2 cells expressing Kebab-GFP incubated 1 hr at 4°C with MBP or MBP-EB1 on amylose resin in DIVEC buffer (50 mM Hepes pH 7.6, 1 mM MgCl2, 1 mM EGTA, 200 mM NaCl, 0.5% TritonX100); western blot with an anti-Kebab antibody; only the target purified

Binder | binding [1] | binding [2]
B1 | binds | –
B2 | – | binds
